{"source": "PubChem BioAssay AID493246 (Drosophila RNAi Screening Center, 2011)", "screen": "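Identify essential fly genes by loss of cell viability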 (primary screen)", "system": "Drosophila Kc and S2R+ cells", "reagents": "long dsRNA against Drosophila genes", "read-out": "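Raw, unnormalised count of remaining cells in each well; per-plate z-scores of cell number underlie the calls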", "scale": "Kc cell number and S2R+ cell number: higher = more cells remaining", "active means": "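Active when the per-plate z-score of cell number is 3 or more in the direction of fewer cells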", "note": "The screen tested about 21,000 reagents; shown is an unselected part of those that have a named target and a result. Over the whole deposit, 429 (2%) got an active call. 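Values are raw and not normalised between plates; calls rest on per-plate z-scores that were not deposited.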 A number with no mark means an inactive call. The numbers tell different reagents against one gene apart. The record does not give: the amount of reagent, the time to read-out."}
{"Gene":"sdt","reagent":1,"Kc cell number, rep 1":1.50e6,"Kc cell number, rep 2":1.73e6,"S2R+ cell number, rep 1":1.06e6,"S2R+ cell number, rep 2":1.17e6}
{"Gene":"sdt","reagent":2,"Kc cell number, rep 1":1.25e6,"Kc cell number, rep 2":1.54e6,"S2R+ cell number, rep 1":1.13e6,"S2R+ cell number, rep 2":1.15e6}
{"Gene":"sdt","reagent":3,"Kc cell number, rep 1":1.47e6,"Kc cell number, rep 2":1.49e6,"S2R+ cell number, rep 1":9.60e5,"S2R+ cell number, rep 2":1.11e6}
{"Gene":"sdt","reagent":4,"Kc cell number, rep 1":1.48e6,"Kc cell number, rep 2":1.49e6,"S2R+ cell number, rep 1":9.38e5,"S2R+ cell number, rep 2":1.06e6}
{"Gene":"sdt","reagent":5,"Kc cell number, rep 1":1.45e6,"Kc cell number, rep 2":1.47e6,"S2R+ cell number, rep 1":1.04e6,"S2R+ cell number, rep 2":1.15e6}
{"Gene":"sdt","reagent":6,"Kc cell number, rep 1":1.14e6,"Kc cell number, rep 2":1.11e6,"S2R+ cell number, rep 1":6.43e5,"S2R+ cell number, rep 2":7.20e5}
{"Gene":"sdt","reagent":7,"Kc cell number, rep 1":"1.01e6 (active)","Kc cell number, rep 2":1.07e6,"S2R+ cell number, rep 1":4.39e5,"S2R+ cell number, rep 2":5.25e5}
{"Gene":"sdt","reagent":8,"Kc cell number, rep 1":1.65e6,"Kc cell number, rep 2":1.62e6,"S2R+ cell number, rep 1":1.05e6,"S2R+ cell number, rep 2":1.18e6}
{"Gene":"sdt","reagent":9,"Kc cell number, rep 1":1.84e6,"Kc cell number, rep 2":1.80e6,"S2R+ cell number, rep 1":1.12e6,"S2R+ cell number, rep 2":1.27e6}
{"Gene":"jef","reagent":1,"Kc cell number, rep 1":1.75e6,"Kc cell number, rep 2":1.92e6,"S2R+ cell number, rep 1":1.47e6,"S2R+ cell number, rep 2":1.60e6}

Entries listed above called active (1):
{"Gene":"sdt","reagent":7,"Kc cell number, rep 1":"1.01e6 (active)","Kc cell number, rep 2":1.07e6,"S2R+ cell number, rep 1":4.39e5,"S2R+ cell number, rep 2":5.25e5}

Additional entries follow.
{"Gene":"Ccm3","reagent":1,"Kc cell number, rep 1":1.36e6,"Kc cell number, rep 2":1.37e6,"S2R+ cell number, rep 1":1.00e6,"S2R+ cell number, rep 2":8.79e5}
{"Gene":"CG5805","reagent":1,"Kc cell number, rep 1":1.59e6,"Kc cell number, rep 2":1.67e6,"S2R+ cell number, rep 1":1.00e6,"S2R+ cell number, rep 2":1.13e6}
{"Gene":"CG7376","reagent":1,"Kc cell number, rep 1":1.34e6,"Kc cell number, rep 2":1.47e6,"S2R+ cell number, rep 1":1.15e6,"S2R+ cell number, rep 2":1.09e6}
{"Gene":"wisp","reagent":1,"Kc cell number, rep 1":6.63e5,"S2R+ cell number, rep 1":7.94e5}
{"Gene":"CG8788","reagent":1,"Kc cell number, rep 1":1.47e6,"Kc cell number, rep 2":1.59e6,"S2R+ cell number, rep 1":1.24e6,"S2R+ cell number, rep 2":1.31e6}
{"Gene":"GATAe","reagent":1,"Kc cell number, rep 1":1.48e6,"Kc cell number, rep 2":1.65e6,"S2R+ cell number, rep 1":1.04e6,"S2R+ cell number, rep 2":1.11e6}
{"Gene":"Sec61gamma","reagent":1,"Kc cell number, rep 1":1.42e6,"Kc cell number, rep 2":1.50e6,"S2R+ cell number, rep 1":1.13e6,"S2R+ cell number, rep 2":1.24e6}
{"Gene":"CG7601","reagent":1,"Kc cell number, rep 1":5.64e5,"S2R+ cell number, rep 1":8.10e5}
{"Gene":"CG17217","reagent":1,"Kc cell number, rep 1":1.59e6,"Kc cell number, rep 2":1.62e6,"S2R+ cell number, rep 1":1.24e6,"S2R+ cell number, rep 2":1.37e6}
{"Gene":"Ho","reagent":1,"Kc cell number, rep 1":1.56e6,"Kc cell number, rep 2":1.60e6,"S2R+ cell number, rep 1":1.29e6,"S2R+ cell number, rep 2":1.27e6}
{"Gene":"spz6","reagent":1,"Kc cell number, rep 1":1.16e6,"Kc cell number, rep 2":1.35e6,"S2R+ cell number, rep 1":9.15e5,"S2R+ cell number, rep 2":8.44e5}
{"Gene":"alpha-Catr","reagent":1,"Kc cell number, rep 1":1.63e6,"Kc cell number, rep 2":1.67e6,"S2R+ cell number, rep 1":1.31e6,"S2R+ cell number, rep 2":1.49e6}
{"Gene":"Ak1","reagent":1,"Kc cell number, rep 1":1.34e6,"Kc cell number, rep 2":1.35e6,"S2R+ cell number, rep 1":1.40e6,"S2R+ cell number, rep 2":1.48e6}
{"Gene":"Rbp9","reagent":1,"Kc cell number, rep 1":1.60e6,"Kc cell number, rep 2":1.56e6,"S2R+ cell number, rep 1":1.12e6,"S2R+ cell number, rep 2":1.20e6}
{"Gene":"Rbp9","reagent":2,"Kc cell number, rep 1":1.35e6,"Kc cell number, rep 2":1.49e6,"S2R+ cell number, rep 1":9.49e5,"S2R+ cell number, rep 2":1.05e6}
{"Gene":"CG5445","reagent":1,"Kc cell number, rep 1":1.53e6,"Kc cell number, rep 2":1.51e6,"S2R+ cell number, rep 1":1.13e6,"S2R+ cell number, rep 2":1.21e6}
{"Gene":"Atg4b","reagent":1,"Kc cell number, rep 1":1.84e6,"Kc cell number, rep 2":1.98e6,"S2R+ cell number, rep 1":1.62e6,"S2R+ cell number, rep 2":1.84e6}
